From US12364722B2, “Multifunctional lactobacillus capable of relieving PFOA toxic effects and application thereof” (priority 2019, dated 2025)
At least one structure is not confirmed: it was looked up by name or label, or the drawing left a doubt.

Key:
MafA mRNA = MafA mRNA expression of INS-1 cells under high glucose (qRT-PCR); type: cell-based, rats; details: high glucose 22.2 mmol/L, vs high glucose group
INS-1 cells = assay: Proliferation of INS-1 cells under high glucose (CCK-8 assay); type: cell-based, rats; details: high glucose 22.2 mmol/L, 48 h, vs high glucose group

## CN(CCOc1ccc(CC2SC(=O)NC2=O)cc1)c1ccccn1 (centres unmarked) [rosiglitazone]
MafA mRNA
  expression of MafA mRNA in INS-1 cells: significantly increased
INS-1 cells
  cell proliferation of INS-1 cells (CCK-8): significantly increased
